Experimental data published in PMC6426973, “Oligomeric self-association contributes to E2A-PBX1-mediated oncogenesis”.
No constants are given. Whether binding was seen depends on the method and setting. In cells and extracts the contact can be indirect. Here binding means that the protein was enriched with, or labelled near, the bait; the list need not be complete. Blank lines part the entries; values can stand above or below the binder they belong to.

Molecular target: LAP-tagged E2A-PBX1 (human)
Test: affinity purification with mass spectrometry; LAP tandem purification from RCH-ACV cells stably expressing LAP-E2A-PBX1: GFP antibody beads, PreScission release, anti-Flag M2 gel, Flag peptide elution; LAP150 buffer (50 mM HEPES pH 7.4, 150 mM KCl, 0.3% NP-40); three independent experiments

- binding: binds
B1: PBX2 (endogenous in RCH-ACV cells) (protein, UniProt P40425 1-430)
chain: MDERLLGPPPPGGGRGGLGLVSGEPGGPGEPPGGGDPGGGSGGVPGGRGKQDIGDILQQIMTITDQSLDEAQAKKHALNCHRMKPALFSVLCEIKEKTGLSIRSSQEEEPVDPQLMRLDNMLLAEGVAGPEKGGGSAAAAAAAAASGGGVSPDNSIEHSDYRSKLAQIRHIYHSELEKYEQACNEFTTHVMNLLREQSRTRPVAPKEMERMVSIIHRKFSAIQMQLKQSTCEAVMILRSRFLDARRKRRNFSKQATEVLNEYFYSHLSNPYPSEEAKEELAKKCGITVSQVSNWFGNKRIRYKKNIGKFQEEANIYAVKTAVSVTQGGHSRTSSPTPPSSAGSGGSFNLSGSGDMFLGMPGLNGDSYSASQVESLRHSMGPGGYGDNLGGGQMYSPREMRANGSWQEAVTPSSVTSPTEGPGSVHSDTSN

- binding: binds
B2: PBX3 (endogenous in RCH-ACV cells) (protein, UniProt P40426 1-434)
chain: MDDQSRMLQTLAGVNLAGHSVQGGMALPPPPHGHEGADGDGRKQDIGDILHQIMTITDQSLDEAQAKKHALNCHRMKPALFSVLCEIKEKTGLSIRGAQEEDPPDPQLMRLDNMLLAEGVSGPEKGGGSAAAAAAAAASGGSSDNSIEHSDYRAKLTQIRQIYHTELEKYEQACNEFTTHVMNLLREQSRTRPISPKEIERMVGIIHRKFSSIQMQLKQSTCEAVMILRSRFLDARRKRRNFSKQATEILNEYFYSHLSNPYPSEEAKEELAKKCSITVSQVSNWFGNKRIRYKKNIGKFQEEANLYAAKTAVTAAHAVAAAVQNNQTNSPTTPNSGSSGSFNLPNSGDMFMNMQSLNGDSYQGSQVGANVQSQVDTLRHVINQTGGYSDGLGGNSLYSPHNLNANGGWQDATTPSSVTSPTEGPGSVHSDTSN
